Values from PubChem BioAssay AID1053208 (Peter MacCallum Cancer Centre, 2014)
The deposit covers about 17,000 reagents; below is an unselected part. 788 of all reagents (4.7%) were called active. 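Calls rest on z-score classes alone; an extra cut-off of viability at most 70% of control was not applied to them.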 Unmarked entries are inactive. Not all columns of the deposit are shown.

- Screen: 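Genes whose silencing cuts survival of bone tumour cells only with doxorubicin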 (primary screen)
- Cell system: mouse osteosarcoma cells, early-passage culture from an engineered mouse model of fibroblastic bone tumour
- Reagents: siRNA pool against mouse genes, 40 nM
- Time to read-out: about 120 h (48 h before drug, then 72 h with drug)
- Challenge: doxorubicin 100 nM for 72 h, roughly 30-40% inhibitory dose
- Measurement: 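Viability read as ATP luminescence after 72 h of 100 nM doxorubicin or none, duplicate wells averaged, scaled to non-targeting siRNA, then expressed as robust z-scores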
- Scale: viability z-score with doxorubicin: higher = more viable cells under doxorubicin; viability z-score without drug: higher = more viable cells with knock-down alone
- Rule for the call: 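Called active if knock-down leaves viability unchanged without drug (z within -2 to 2) but lowers it with doxorubicin (z at or under -2)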

Kcnq5 [SID152299737] scored combined z-score class no change with or without drug; viability z-score with doxorubicin -1.35; viability z-score without drug -0.84.
Obi1 [SID152298853] gave combined z-score class no change with or without drug; viability z-score with doxorubicin -0.11; viability z-score without drug 0.17.
For Tex264 [SID152271728], the entry reads combined z-score class no change with or without drug; viability z-score with doxorubicin 0.67; viability z-score without drug -0.51.
For Rtl1 [SID152269270], the entry reads combined z-score class no change with or without drug; viability z-score with doxorubicin 1.91; viability z-score without drug 1.85.
Dnai7 [SID152272407] gave combined z-score class no change with or without drug; viability z-score with doxorubicin -1.46; viability z-score without drug -0.67.
For Or4c123 [SID152295780] the deposit lists combined z-score class no change with or without drug; viability z-score with doxorubicin -0.22; viability z-score without drug 0.34.
Against Ndufaf5 [SID152309207] the deposit lists combined z-score class no change with or without drug; viability z-score with doxorubicin 0.22; viability z-score without drug 1.18.
With knock-down of Nars1 [SID152318267], the record shows combined z-score class no change with or without drug; viability z-score with doxorubicin 0.9; viability z-score without drug -0.51.

Sorted by “viability z-score with doxorubicin” (descending): some entries from above
Nars1 [SID152318267] | combined z-score class: no change with or without drug; viability z-score with doxorubicin: 0.9; viability z-score without drug: -0.51
Ndufaf5 [SID152309207] | combined z-score class: no change with or without drug; viability z-score with doxorubicin: 0.22; viability z-score without drug: 1.18

Continued.
For Mgme1 [SID152292385] the deposit lists combined z-score class no change with or without drug; viability z-score with doxorubicin 0.56; viability z-score without drug 0.17.
Afp [SID152283146] gave combined z-score class no change with or without drug; viability z-score with doxorubicin 0.9; viability z-score without drug -0.34.
Silencing of Sepsecs [SID152338642] resulted in: combined z-score class no change with or without drug; viability z-score with doxorubicin -1.57; viability z-score without drug 1.52.
Vmn1r66 [SID152281488] gave combined z-score class no change with or without drug; viability z-score with doxorubicin -0.56; viability z-score without drug -1.18.
